Test system: rats
Test: Sucrose density gradient fractionation of plasma 14,000xg pellet with qPCR and electron microscopy
Assay type: in vivo, rat
Settings: certain density fractions, most notably 1.07 and 1.25 g/mL; DGAL-treated rats

With `N[C@H]1C(O)O[C@H](CO)[C@H](O)[C@@H]1O` (stereo partly drawn) [DGAL, D-(+)-galactosamine] the mean microparticle diameter was “increase in mean microparticle diameter”.
